Assay results reported in patent publication US20200129434A1, “LIPOSOME COMPOSITIONS AND USES THEREOF” (TECHNION RESEARCH & DEVELOPMENT FOUNDATION LIMITED, priority 2017, published 2020).
For part of these data: At least one read-out could not be matched to a standard name with certainty. For part of these data: For at least one compound, name, drawing or mass did not settle the structure. Some results were stated once for a whole list of compounds, not compound by compound.

Assays:
U87 glioblastoma cells [1] = test: Tumor growth in the mouse model of glioblastoma, luciferase imaging with IVIS 200; assay type: in vivo, SCID immuno-deficient mice; details: 4 mg/kg daily intraperitoneally, 18 days, FIG. 2
Text: (§1) In order to assess the efficacy of the liposome composition in delivering a therapeutic agent to the brain, glioblastoma in a mouse model was employed. Curcumin was integrated into liposomes comprising cholesterol: phosphatidyl phosphoric acid: phosphatidyl choline in molar ratios of 35:7:58. The targeting peptide was present at 0.5% by molar ratio, mol % or weight %, and the curcumin was at a final concentration of 1% by molar ratio, mol % or weight %. The resulting liposomes where lyophilized, hydrated and downsized into a diameter of 0.1 μm±20%.
(§2) These liposomes comprised cholesterol: phosphatidyl phosphoric acid: phosphatidyl choline in molar ratios of 40:5:55. The molar concentration of the drug and targeting peptide were unchanged.
As a model of glioblastoma, SCID immuno-deficient mice were implanted with U87 glioblastoma cells. The U87 cells had previously been transfected with a luciferase gene, such that upon intraperitoneally injection of the mice with luciferin, the cells would fluoresce, allowing for accurate quantification and imaging of the tumor using the IVIS 200 imaging system. The degree of fluorescence measured was proportional to the number of cancer cells, and therefore indicated the cancer growth. […]
By using the luciferase imaging system, quantification of the relative tumor size was possible (FIG. 3). […]

U87 glioblastoma cells [2] = test: Survival studies in U87 transferred mice; assay type: in vivo, SCID immuno-deficient mice; details: daily dosing 4 mg/kg, FIG. 4
Text: as §1, §2
As a model of glioblastoma, SCID immuno-deficient mice were implanted with U87 glioblastoma cells. The U87 cells had previously been transfected with a luciferase gene, such that upon intraperitoneally injection of the mice with luciferin, the cells would fluoresce, allowing for accurate quantification and imaging of the tumor using the IVIS 200 imaging system. The degree of fluorescence measured was proportional to the number of cancer cells, and therefore indicated the cancer growth.
Curcumin and TMZ in targeted liposome carriers, were administered intraperitoneally to the mice 3 days after injection of the tumor cells and for at least 3 weeks. […]

[3] = Evaluation of liposome compositions for delivery of curcumin (solubility, drug stability, half-life); assay type: physicochemical; details: curcumin loaded in the cholesterol/PA/PC liposome formulation, versus curcumin without it
Text: To test various liposome compositions, the water insoluble drug curcumin was employed as the therapeutic agent to be incorporated into the liposome. Curcumin, has been used for many clinical purposes, including as an antioxidant, antibacterial, anti-inflammatory agent, anti-neurodegenerative processes and anticancer agent. Curcumin however, is highly water-insoluble, has a very short biological half-life, and poor pharmacokinetics. Previous attempts at liposomes for the delivery of curcumin comprised cholesterol (Ch), 1,2-dioleyl-sn-glycero-3-phosphocholine (DOPC), 1,2-dioleyl-sn-glycero-3-phosphoethanolamine (DOPE), and 1,2-dioleoyl-sn-glycero-3-[phosphor-L-serine] (DOPS), usually in equimolar amounts.
Various compositions of liposomes for delivery of curcumin were tested and evaluated for drug loading, drug stability and half-life, and effective targeting in the body. […] The targeting peptide was dissolved in chloroform/methanol and added to the mixture at 0.1-2% by molar ratio, mol % or weight %.
Loading of the drug into the liposome was achieved by pre-dissolving the target drug during the preparation of the liposome, thereby enabling a desired and reproducible concentration of the drug in the most stabilized environment.

SMILES | growth of the tumor compared with saline (U87 glioblastoma cells [1]) | survival time of all mice after tumor cell transfer (U87 glioblastoma cells [2]) | improved solubility of curcumin [3]
Cn1nnc2c(C(N)=O)ncn2c1=O [free TMZ, Temozolomide] | no statistically significant difference |  | 
COc1cc(/C=C/C(=O)CC(=O)/C=C/c2ccc(O)c(OC)c2)ccc1O [free curcumin, curcumin] |  | < 30 days | more than 100 times
